PubChem BioAssay AID330 (DTP/NCI, 2004)
The list does not hold the whole screen: it gathers tests that were run many times, whatever their T/C, doses with no T/C, and many T/C values between a quarter and a half above the control. Further doses and runs are listed elsewhere. T/C: endpoint of the treated group in % of that of the vehicle group. Some entries give survivors of the animals treated and no T/C: the source files T/C as zero there, which appears to mark a toxic dose or a test without result, not a measured value. Some survivor counts are full or nearly so, which does not show that the dose was tolerated: the source hardly ever lists a survival T/C far under the control, and the zero likely stands for such cases as well. Counts of survivors are from the toxicity check (mostly the fifth day) where no day follows; animals may have died later. Schedules are NCI's codes, taken here to give the interval after Q, in days (D) or hours (H), and the number of doses after X. Some doses were run more than once; the values are given in rising order. Some structures stand for samples that the source files as different forms (salt, stereo form or complex); doses refer to the form tested. For survival time, the PubChem record calls one and a half times the control and up active, and a quarter to a half above the control has no call in these data; cut-offs in other NCI protocols can differ.

Test system: P388 leukemia ip, CD2F1 mice, survival T/C
Test: NCI In Vivo Anticancer Drug Screen. Data for tumor model P388 Leukemia (intraperitoneal) in CD2F1 (CDF1) mice
Details: T/C endpoint: median survival time, higher T/C = longer survival
[1] = dose: 12.5 mg/kg/injection, schedule: Q01DX009 (ip), vehicle: Klucel (hydroxypropylcellulose) (HPC)
[2] = dose: 25.0 mg/kg/injection, schedule: Q01DX009 (ip), vehicle: Klucel (hydroxypropylcellulose) (HPC)
[3] = dose: 50.0 mg/kg/injection, schedule: Q01DX009 (ip), vehicle: Klucel (hydroxypropylcellulose) (HPC)
[4] = dose: 100.0 mg/kg/injection, schedule: Q01DX009 (ip), vehicle: Klucel (hydroxypropylcellulose) (HPC)
[5] = dose: 200.0 mg/kg/injection, schedule: Q01DX009 (ip), vehicle: Klucel (hydroxypropylcellulose) (HPC)
[6] = dose: 200.0 mg/kg/injection, schedule: Q01DX005 (ip), vehicle: Klucel (hydroxypropylcellulose) (HPC)
[7] = dose: 240.0 mg/kg/injection, schedule: Q01DX005 (ip), vehicle: saline with Tween-80
[8] = dose: 50.0 mg/kg/injection, schedule: Q01DX009 (ip), vehicle: saline with Tween-80
[9] = dose: 200.0 mg/kg/injection, schedule: Q01DX009 (ip), vehicle: saline with Tween-80
[10] = dose: 12.5 mg/kg/injection, schedule: Q01DX005 (ip), vehicle: Klucel (hydroxypropylcellulose) (HPC)
[11] = dose: 50.0 mg/kg/injection, schedule: Q01DX005 (ip), vehicle: Klucel (hydroxypropylcellulose) (HPC)
[12] = dose: 200.0 mg/kg/injection, schedule: Q01DX005 (ip), vehicle: saline with Tween-80

CCCC[n+]1c(/C=C\c2c(OC)cc(OC)cc2OC)ccc2ccccc21 was tested, and the T/C (dose: 0.78 mg/kg/injection, schedule: Q01DX009 (ip), vehicle: Klucel (hydroxypropylcellulose) (HPC)) was 125 and 146 % of control, the survivor count (dose: 1.56 mg/kg/injection, schedule: Q01DX009 (ip), vehicle: Klucel (hydroxypropylcellulose) (HPC)) was 0 of 6 and 5 of 6 and the survivor count (dose: 3.12 mg/kg/injection, schedule: Q01DX009 (ip), vehicle: Klucel (hydroxypropylcellulose) (HPC)) was 0 of 6 and 2 of 6. For the same compound, the survivor count (dose: 6.25 mg/kg/injection, schedule: Q01DX009 (ip), vehicle: Klucel (hydroxypropylcellulose) (HPC)) was 0 of 6, the survivor count [1] was 0 of 6 and the survivor count [2] was 0 of 6. For the same compound, the survivor count [3] was 0 of 6, the survivor count [4] was 0 of 6 and the survivor count [5] was 0 of 6. For the same compound, the survivor count (dose: 400.0 mg/kg/injection, schedule: Q01DX009 (ip), vehicle: Klucel (hydroxypropylcellulose) (HPC)) was 0 of 6.

In the case of CC(C)(C)N1CCC1, the survivor count [6] is reported as 0 of 6.

For CCOC(=O)Sc1ncnc2nc[nH]c12, the survivor count (dose: 400.0 mg/kg/injection, schedule: Q04DX003 (ip), vehicle: saline with Tween-80) was 5 of 6.

For CC[N+](C)(CC)CCSC1=Nc2ccccc2N=C(c2ccc(Sc3ccccc3)cc2)C1, the survivor count [1] was 2 of 6, the survivor count [2] was 1 of 6 and the survivor count [3] was 0 of 6. For the same compound, the survivor count [4] was 0 of 6 and the survivor count [5] was 0 of 6.

O=C(CBr)Nc1ncc([N+](=O)[O-])s1 was tested, and the survivor count [2] was 2 of 6, the survivor count [3] was 0 of 6 and the survivor count [4] was 0 of 6. For the same compound, the survivor count [5] was 0 of 6.

For O=[N+]([O-])c1cccn2cnnc12, the survivor count (dose: 200.0 mg/kg/injection, schedule: Q01DX009 (ip), vehicle: saline) was 2 of 6.

For C/C(=N\NC(=S)N1CCCCCCCCCCCC1)c1ccccn1, the survivor count (dose: 100.0 mg/kg/injection, schedule: Q04DX003 (ip), vehicle: Klucel (hydroxypropylcellulose) (HPC)) was 6 of 6, the survivor count (dose: 200.0 mg/kg/injection, schedule: Q04DX003 (ip), vehicle: Klucel (hydroxypropylcellulose) (HPC)) was 6 of 6 and the survivor count (dose: 400.0 mg/kg/injection, schedule: Q04DX003 (ip), vehicle: Klucel (hydroxypropylcellulose) (HPC)) was 0 of 6.

N#Cc1ccc(NC(=O)Nc2ccc([N+](=O)[O-])cc2Cl)cc1 was tested, and the survivor count (dose: 60.0 mg/kg/injection, schedule: Q01DX005 (ip), vehicle: saline with Tween-80) was 6 of 6 and the survivor count (dose: 120.0 mg/kg/injection, schedule: Q01DX005 (ip), vehicle: saline with Tween-80) was 6 of 6.

In the case of O=C(O)C(Cc1ccccc1)NSc1ccccc1[N+](=O)[O-] (stereo not given), the survivor count (dose: 400.0 mg/kg/injection, schedule: Q01DX009 (ip), vehicle: distilled water + Tween-80) is reported as 1 of 6 and 3 of 6.

In the case of CCCCS(=O)(=O)CCC(N)C(=O)O (stereo not given), the survivor count [7] is reported as 0 of 6.

For COC(=O)c1ccc(C(=O)OC)c2nc3cc(C)c(C)cc3nc12, the survivor count (dose: 240.0 mg/kg/injection, schedule: Q01DX005 (ip), vehicle: Klucel (hydroxypropylcellulose) (HPC)) was 1 of 6.

In the case of COc1cccc2c1C(=O)c1c(O)c3c(c(O)c1C2=O)C[C@@](O)(C(C)=O)C[C@@H]3OC1CC(N(CCO)Cc2ccccc2)C(O)C(C)O1 (stereo not given in full), the T/C (dose: 16.0 mg/kg/injection, schedule: Q04DX003 (ip), vehicle: water) is reported as 130 % of control and the T/C (dose: 25.0 mg/kg/injection, schedule: Q04DX003 (ip), vehicle: water) is reported as 129 % of control.

In the case of CCCOC(=O)C1C2CCC(O2)C1C(=O)O (stereo not given), the survivor count (dose: 25.0 mg/kg/injection, schedule: Q01DX005 (ip), vehicle: saline) is reported as 1 of 6, the survivor count (dose: 50.0 mg/kg/injection, schedule: Q01DX005 (ip), vehicle: saline) is reported as 0 of 6 and the survivor count (dose: 100.0 mg/kg/injection, schedule: Q01DX005 (ip), vehicle: saline) is reported as 0 of 6. For the same compound, the survivor count (dose: 200.0 mg/kg/injection, schedule: Q01DX005 (ip), vehicle: saline) was 0 of 6.

For CNCc1c(C)[nH]c2ccc(N(C)C)cc2c1=O, the survivor count [7] was 0 of 6.

With COC(=S)C(=S)OC the survivor count [8] was 1 of 6 and 2 of 6, the survivor count (dose: 100.0 mg/kg/injection, schedule: Q01DX009 (ip), vehicle: saline with Tween-80) was 0 of 6 and the survivor count [9] was 0 of 6.

c1ccc2c(c1)N=Nc1ccccc1OCCOCCOCCO2 was tested, and the survivor count (dose: 200.0 mg/kg/injection, schedule: Q01DX001 (ip), vehicle: saline with Tween-80) was 0 of 6 and the survivor count (dose: 400.0 mg/kg/injection, schedule: Q01DX001 (ip), vehicle: saline with Tween-80) was 0 of 6.

In the case of CCC[CH2][Sn]([CH2]CCC)([n]1ccnc1)[n]1ccnc1, the survivor count [10] is reported as 0 of 6, the survivor count [11] is reported as 0 of 6 and the survivor count (dose: 100.0 mg/kg/injection, schedule: Q01DX005 (ip), vehicle: Klucel (hydroxypropylcellulose) (HPC)) is reported as 0 of 6. For the same compound, the survivor count [6] was 0 of 6.

For COC(=O)c1c(C(=O)OC)c(-c2cccc(Cl)c2)n2c1CCC2, the survivor count (dose: 50.0 mg/kg/injection, schedule: Q01DX005 (ip), vehicle: saline with Tween-80) was 6 of 6.

COc1ccc2c(C)cc(NNC(N)=S)nc2c1 was tested, and the survivor count [6] was 0 of 6 and 5 of 6.

COc1cccc2c1C(=O)c1c(O)c3c(c(O)c1C2=O)C[C@@](O)(C(=O)CO)C[C@@H]3OC1CC(NCC#N)C(O)C(C)O1 (stereo not given in full) was tested, and the T/C (dose: 4.0 mg/kg/injection, schedule: Q04DX003 (ip), vehicle: saline + Tween-80 + alcohol) was 128 % of control, the T/C (dose: 8.0 mg/kg/injection, schedule: Q04DX003 (ip), vehicle: saline + Tween-80 + alcohol) was 144 % of control and the T/C (dose: 16.0 mg/kg/injection, schedule: Q04DX003 (ip), vehicle: saline + Tween-80 + alcohol) was 137 % of control. For the same compound, the T/C (dose: 16.0 mg/kg/injection, schedule: Q04DX003 (ip), vehicle: saline + alcohol) was 133 % of control, the survivor count (dose: 64.0 mg/kg/injection, schedule: Q04DX003 (ip), vehicle: saline + Tween-80 + alcohol) was 2 of 5 on day 9 and the survivor count (dose: 64.0 mg/kg/injection, schedule: Q04DX003 (ip), vehicle: saline + alcohol) was 6 of 6 on day 9.

With C/C(=N\NC(=S)Nc1ccc(C(=O)O)cc1C)c1ccccn1 the survivor count [12] was 1 of 6.

For CC(C)N(Cc1ccccc1)CC(O)c1ccc(Cl)cc1 (stereo not given), the survivor count [9] was 5 of 6.

CC(C)(C)N1COCCOC1 was tested, and the T/C [8] was 133 % of control and the survivor count [9] was 0 of 6.

COc1ccc2nc3cc(Cl)ccc3c(NCCCN3CCCC3)c2n1 was tested, and the survivor count (dose: 50.0 mg/kg/injection, schedule: Q01DX009 (ip), vehicle: water) was 3 of 6, the survivor count (dose: 100.0 mg/kg/injection, schedule: Q01DX009 (ip), vehicle: water) was 1 of 6 and the survivor count (dose: 200.0 mg/kg/injection, schedule: Q01DX009 (ip), vehicle: water) was 0 of 6.

For COC(=O)Nc1ccc(C2OCCN2C(=O)Nc2ccc(Cl)cc2)cc1 (stereo not given), the survivor count [12] was 5 of 6.

In the case of Cc1cc2nc3c(C4OCC(O)C4O)nn(-c4ccccc4)c3nc2cc1C (stereo not given), the survivor count [10] is reported as 5 of 5 and 6 of 6, the survivor count (dose: 25.0 mg/kg/injection, schedule: Q01DX005 (ip), vehicle: Klucel (hydroxypropylcellulose) (HPC)) is reported as 5 of 5 and the survivor count [11] is reported as 6 of 6.
